Measured values reported in PubChem BioAssay AID262 (DTP/NCI, 2004).
The list shows only some results of the screen, not a fair sample: it is rich in T/C values a quarter to a half above the control, in often repeated tests (any T/C) and in doses without a T/C. Other doses and runs of a compound stand elsewhere. T/C is the treated group as % of the vehicle group. Some entries give survivors of the animals treated and no T/C: the source files T/C as zero there, which appears to mark a toxic dose or a test without result, not a measured value. Survivors were counted at the toxicity check, usually on the fifth day, unless a day is given; later deaths do not show. Schedule codes are those of the source, read here as Q, the interval in days (D) or hours (H), X, the number of doses. Some doses were run more than once; their values stand side by side, smallest first.

System: LX-1 lung xenograft sc, nude mice, tumor weight
Test: NCI In Vivo Anticancer Drug Screen. Data for tumor model Human Lung LX-1 Xenograft (subcutaneous) in NU/NU Swiss (nude) mice
Conditions: T/C endpoint: optimum tumor weight change, schedule: Q04DX003 (ip), higher T/C = larger tumour
Procedure: The antitumor activity of compounds was measured in mice bearing transplantable tumors. Survival or tumor size were measured and the results are expressed as the measurement made in the treated group (T) divided by the measurement made in the vehicle treated control group (C). The tumor model used in this assay is Human Lung LX-1 Xenograft (subcutaneous) in NU/NU Swiss (nude) mice

[1] = dose: 12.5 mg/kg/injection, vehicle: saline
[2] = dose: 100.0 mg/kg/injection, vehicle: saline
[3] = dose: 200.0 mg/kg/injection, vehicle: saline
[4] = dose: 400.0 mg/kg/injection, vehicle: saline
[5] = dose: 800.0 mg/kg/injection, vehicle: saline
[6] = dose: 800.0 mg/kg/injection, vehicle: suspension in saline
[7] = dose: 1600.0 mg/kg/injection, vehicle: suspension in saline
[8] = dose: 25.0 mg/kg/injection, vehicle: saline
[9] = dose: 200.0 mg/kg/injection, vehicle: Klucel (hydroxypropylcellulose) (HPC)
[10] = dose: 20.0 mg/kg/injection, vehicle: Klucel (hydroxypropylcellulose) (HPC)
[11] = dose: 40.0 mg/kg/injection, vehicle: Klucel (hydroxypropylcellulose) (HPC)

## O=P1(NCCCl)OCCCN1CCCl (stereo not drawn)
[1]
  survivor count: 3 of 5 on day 36
[2]
  survivor count: 1 of 5 on day 36
[3]
  survivor count: 0 of 5 on day 36
[4]
  survivor count: 0 of 5 on day 36
[5]
  survivor count: 0 of 5 on day 36

## CC(=O)OCC1OC(n2ccc(N)nc2=O)C(OC(C)=O)C1OC(C)=O (stereo not drawn)
[6]
  survivor count: 2 of 5 on day 36
[7]
  survivor count: 2 of 5 on day 36

## CC(C)CCCCCCCCCCCCC(=O)NCC(=O)NC1C(C)OC(Nc2ncnc3nc[nH]c23)C(O)C1O (stereo not drawn)
dose: 12.5 mg/kg/injection, vehicle: saline with Tween-80
  survivor count: 1 of 5 on day 35
dose: 25.0 mg/kg/injection, vehicle: saline with Tween-80
  survivor count: 0 of 5 on day 35

## Cn1cnc([N+](=O)[O-])c1[Se]c1nc(N)nc2nc[nH]c12
dose: 200.0 mg/kg/injection, vehicle: water
  survivor count: 1 of 5 on day 36

## COc1cc2c[n+](C)c3c4cc5c(cc4ccc3c2cc1OC)OCO5
dose: 160.0 mg/kg/injection, vehicle: saline with Tween-80
  survivor count: 0 of 5 on day 35

## COc1cccc2c1C(=O)c1c(O)c3c(c(O)c1C2=O)C[C@@](O)(C(=O)CO)C[C@@H]3OC1CC(N)C(OC)C(C)O1 (stereo partly drawn)
dose: 3.13 mg/kg/injection, vehicle: saline
  survivor count: 0 of 5 on day 35

## O=NN(CCCl)C(=O)NC1CCC(=O)NC1=O (stereo not drawn)
dose: 10.0 mg/kg/injection, vehicle: saline with Tween-80
  survivor count: 2 of 5 on day 35
dose: 20.0 mg/kg/injection, vehicle: saline with Tween-80
  survivor count: 0 of 5 on day 35

## Nc1cc2[nH]cnc2c(=O)[nH]1
[4]
  survivor count: 3 of 5 on day 35

## COc1cc([C@@H]2c3cc4c(c(O)c3C[C@H]3COC(=O)[C@@H]32)OCO4)cc(OC)c1O
[1]
  survivor count: 3 of 5 on day 36
[8]
  survivor count: 0 of 5 on day 36

## CCN(C)N=Nc1ccc(C(N)=O)cc1
[9]
  survivor count: 3 of 6 on day 36
dose: 400.0 mg/kg/injection, vehicle: Klucel (hydroxypropylcellulose) (HPC)
  survivor count: 0 of 6 on day 36
dose: 800.0 mg/kg/injection, vehicle: Klucel (hydroxypropylcellulose) (HPC)
  survivor count: 0 of 6 on day 36

## COc1cccc2c1C(=O)c1c(O)c3c(c(O)c1C2=O)C[C@@](O)(/C(C)=N\O)C[C@@H]3OC1CC(N)C(O)C(C)O1 (stereo partly drawn)
[8]
  survivor count: 3 of 5 on day 34
dose: 50.0 mg/kg/injection, vehicle: saline
  survivor count: 0 of 5 on day 34
[2]
  survivor count: 0 of 5 on day 34

## ClCC[N+]12CC[N+](CCCl)(CC1)C2
dose: 800.0 mg/kg/injection, vehicle: saline with Tween-80
  survivor count: 1 of 5 on day 35

## O=C(O)CP(=O)(O)O
dose: 3200.0 mg/kg/injection, vehicle: saline
  survivor count: 0 of 5 on day 36

## O=C(NO)c1ccccc1
[3]
  survivor count: 0 of 5 on day 35
[4]
  survivor count: 0 of 5 on day 35
[5]
  survivor count: 0 of 5 on day 35
[6]
  survivor count: 2 of 5 on day 35
[7]
  survivor count: 3 of 5 on day 35

## O=NN(CCCl)C(=O)NC1CCCCC1
[10]
  survivor count: 3 of 5 on day 35
[11]
  survivor count: 2 of 5 on day 36 and 3 of 5 on day 35
dose: 80.0 mg/kg/injection, vehicle: Klucel (hydroxypropylcellulose) (HPC)
  survivor count: 0 of 5 on day 35

## C=CC(=O)N1CN(C(=O)C=C)CN(C(=O)C=C)C1
dose: 12.0 mg/kg/injection, vehicle: saline with Tween-80
  survivor count: 3 of 5 on day 36

## CN(C)N=Nc1ccccc1
dose: 100.0 mg/kg/injection, vehicle: Klucel (hydroxypropylcellulose) (HPC)
  survivor count: 0 of 5 on day 36 and 1 of 5 on day 36
[9]
  survivor count: 0 of 5 on day 36

## CC(C)CCCCCCCCCCCCC(=O)NCC(=O)NC1C(O)C(O)C(Nc2ncnc3nc[nH]c23)OC1C(O)CO (stereo not drawn)
dose: 12.0 mg/kg/injection, vehicle: suspension in saline
  survivor count: 2 of 5 on day 36
dose: 24.0 mg/kg/injection, vehicle: suspension in saline
  survivor count: 0 of 5 on day 36
dose: 48.0 mg/kg/injection, vehicle: suspension in saline
  survivor count: 0 of 5 on day 36

## CCOC(=O)C1C2OC(=O)C(C(=O)C2CN(CCCl)CCCl)C1C1CC=C(CC2=CCC(C3C4C(=O)OC(C(CN(CCCl)CCCl)C4=O)C3C(=O)OCC)CC2)CC1 (stereo not drawn)
[9]
  survivor count: 0 of 5 on day 42

## CC1CCC(NC(=O)N(CCCl)N=O)CC1 (stereo not drawn)
[10]
  survivor count: 1 of 5 on day 41
[11]
  survivor count: 0 of 5 on day 41

## CCC1=C[C@H]2CN(CCc3c([nH]c4ccccc34)[C@@](C(=O)OC)(c3cc4c(cc3OC)N(C)[C@H]3[C@@](O)(C(=O)NC)[C@H](OC(C)=O)[C@]5(CC)C=CCN6CC[C@]43[C@@H]65)C2)C1
dose: 2.0 mg/kg/injection, vehicle: water
  survivor count: 0 of 5 on day 41
